No constants are given. Whether binding was seen depends on the method and setting. Binding seen in cells or lysates may run through a third protein. Where a sequence is shown, tags or fusion partners need not be part of it.
Target: HA-Src SH3 domain-deleted mutant (human) (UniProt P12931)
Assay: co-IP; HEK293T (and Huh7, Fig. 1B) cells co-transfected with Myc-TRIM56 or its domain-deleted mutants and HA-Src or its domain-deleted mutants; which tag was precipitated is not told

binding: no binding
B1: Myc-TRIM56 (tripartite motif-containing protein 56) (protein, UniProt Q9BRZ2 1-755)
chain: MVSHGSSPSLLEALSSDFLACKICLEQLRAPKTLPCLHTYCQDCLAQLADGGRVRCPECRETVPVPPEGVASFKTNFFVNGLLDLVKARACGDLRAGKPACALCPLVGGTSTGGPATARCLDCADDLCQACADGHRCTRQTHTHRVVDLVGYRAGWYDEEARERQAAQCPQHPGEALRFLCQPCSQLLCRECRLDPHLDHPCLPLAEAVRARRPGLEGLLAGVDNNLVELEAARRVEKEALARLREQAARVGTQVEEAAEGVLRALLAQKQEVLGQLRAHVEAAEEAARERLAELEGREQVARAAAAFARRVLSLGREAEILSLEGAIAQRLRQLQGCPWAPGPAPCLLPQLELHPGLLDKNCHLLRLSFEEQQPQKDGGKDGAGTQGGEESQSRREDEPKTERQGGVQPQAGDGAQTPKEEKAQTTREEGAQTLEEDRAQTPHEDGGPQPHRGGRPNKKKKFKGRLKSISREPSPALGPNLDGSGLLPRPIFYCSFPTRMPGDKRSPRITGLCPFGPREILVADEQNRALKRFSLNGDYKGTVPVPEGCSPCSVAALQSAVAFSASARLYLINPNGEVQWRRALSLSQASHAVAALPSGDRVAVSVAGHVEVYNMEGSLATRFIPGGKASRGLRALVFLTTSPQGHFVGSDWQQNSVVICDGLGQVVGEYKGPGLHGCQPGSVSVDKKGYIFLTLREVNKVVILDPKGSLLGDFLTAYHGLEKPRVTTMVDGRYLVVSLSNGTIHIFRVRSPDS

Source: publication PMC12533068
